Test results taken from patent publication US20230303547A1, “N-CYANOPYRROLIDINES WITH ACTIVITY AS USP30 INHIBITORS” (MISSION THERAPEUTICS LIMITED, priority 2020, published 2023).
For at least one compound, name, drawing or mass did not settle the structure.

What was measured:
[1] = tested on: USP2, USP6, USP10, USP15, USP16, USP21, USP25, USP28, USP46/UAF1; test: DUB selectivity panel IC50; assay type: biochemical; settings: fold, minimum over nine DUBs
[2] = tested on: cathepsins (B, K, L, S and V); test: Cathepsin panel summary; assay type: biochemical; settings: fold

`COC[C@@H]1C[C@@H](NC(=O)c2ncc(-c3cc(C#N)ccc3OC3CC3)o2)CN1C#N` [Example 2, 5-(5-cyano-2-cyclopropoxyphenyl)-N-((3R,5S)-1-cyano-5-(methoxymethyl)pyrrolidin-3-yl)oxazole-2-carboxamide] was tested, and the “DUB selectivity preference for USP30 v 9 DUBs” value [1] was no less than 367 and the “Selectivity preference for USP30 v cathepsins” value [2] was no less than 6300.
